Where a name gives a salt, the structure may show the parent alone. The list shows a part of the results. The calls rarely recur for the same compound in another form.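 Kinases were expressed as nanoluciferase fusions in K562 cells and luminescence was read every 4 h between 2 and 18 h as percent of control, DMSO set to 100% and a positive control to 0%. A time point counts as decreased when the signal drops significantly (2 sigma). The hit call is the authors' own, does not follow from the count of time points alone, and its rule is not shown.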
Legend:
Experiment in all cases: number of time points (of 5) at which kinase-Nluc abundance scored as decreased, DMSO-normalised (count); higher = more persistent destabilization
Details in all cases: K562; 2-18 h
[1] = target: ALK (UniProt Q9UM73)
[2] = target: ARAF (UniProt P10398)
[3] = target: AURKA (UniProt O14965)
[4] = target: AURKB (UniProt Q96GD4)
[5] = target: AURKC (UniProt Q9UQB9)
[6] = target: BLK (UniProt P51451)
[7] = target: BMX (UniProt P51813)
[8] = target: BRAF (UniProt P15056)
[9] = tested on: BRAF_V600E
[10] = target: BTK (UniProt Q06187)
[11] = target: CAMK2A (UniProt Q9UQM7)
[12] = target: CAMK2G (UniProt Q13555)
[13] = target: CDK10 (UniProt Q15131)
[14] = target: CDK2 (UniProt P24941)
[15] = target: CDK3 (UniProt Q00526)
[16] = target: CDK5 (UniProt Q00535)
[17] = target: CDK6 (UniProt Q00534)
[18] = target: CHEK2 (UniProt O96017)
[19] = target: CSF1R (UniProt P07333)
[20] = target: CSK (UniProt P41240)

Chains of the proteins cited; added tags and fusions are not shown. Lines headed by an entry give the natural chain unless they say otherwise; changes in a name come on top.
UniProt Q9UM73: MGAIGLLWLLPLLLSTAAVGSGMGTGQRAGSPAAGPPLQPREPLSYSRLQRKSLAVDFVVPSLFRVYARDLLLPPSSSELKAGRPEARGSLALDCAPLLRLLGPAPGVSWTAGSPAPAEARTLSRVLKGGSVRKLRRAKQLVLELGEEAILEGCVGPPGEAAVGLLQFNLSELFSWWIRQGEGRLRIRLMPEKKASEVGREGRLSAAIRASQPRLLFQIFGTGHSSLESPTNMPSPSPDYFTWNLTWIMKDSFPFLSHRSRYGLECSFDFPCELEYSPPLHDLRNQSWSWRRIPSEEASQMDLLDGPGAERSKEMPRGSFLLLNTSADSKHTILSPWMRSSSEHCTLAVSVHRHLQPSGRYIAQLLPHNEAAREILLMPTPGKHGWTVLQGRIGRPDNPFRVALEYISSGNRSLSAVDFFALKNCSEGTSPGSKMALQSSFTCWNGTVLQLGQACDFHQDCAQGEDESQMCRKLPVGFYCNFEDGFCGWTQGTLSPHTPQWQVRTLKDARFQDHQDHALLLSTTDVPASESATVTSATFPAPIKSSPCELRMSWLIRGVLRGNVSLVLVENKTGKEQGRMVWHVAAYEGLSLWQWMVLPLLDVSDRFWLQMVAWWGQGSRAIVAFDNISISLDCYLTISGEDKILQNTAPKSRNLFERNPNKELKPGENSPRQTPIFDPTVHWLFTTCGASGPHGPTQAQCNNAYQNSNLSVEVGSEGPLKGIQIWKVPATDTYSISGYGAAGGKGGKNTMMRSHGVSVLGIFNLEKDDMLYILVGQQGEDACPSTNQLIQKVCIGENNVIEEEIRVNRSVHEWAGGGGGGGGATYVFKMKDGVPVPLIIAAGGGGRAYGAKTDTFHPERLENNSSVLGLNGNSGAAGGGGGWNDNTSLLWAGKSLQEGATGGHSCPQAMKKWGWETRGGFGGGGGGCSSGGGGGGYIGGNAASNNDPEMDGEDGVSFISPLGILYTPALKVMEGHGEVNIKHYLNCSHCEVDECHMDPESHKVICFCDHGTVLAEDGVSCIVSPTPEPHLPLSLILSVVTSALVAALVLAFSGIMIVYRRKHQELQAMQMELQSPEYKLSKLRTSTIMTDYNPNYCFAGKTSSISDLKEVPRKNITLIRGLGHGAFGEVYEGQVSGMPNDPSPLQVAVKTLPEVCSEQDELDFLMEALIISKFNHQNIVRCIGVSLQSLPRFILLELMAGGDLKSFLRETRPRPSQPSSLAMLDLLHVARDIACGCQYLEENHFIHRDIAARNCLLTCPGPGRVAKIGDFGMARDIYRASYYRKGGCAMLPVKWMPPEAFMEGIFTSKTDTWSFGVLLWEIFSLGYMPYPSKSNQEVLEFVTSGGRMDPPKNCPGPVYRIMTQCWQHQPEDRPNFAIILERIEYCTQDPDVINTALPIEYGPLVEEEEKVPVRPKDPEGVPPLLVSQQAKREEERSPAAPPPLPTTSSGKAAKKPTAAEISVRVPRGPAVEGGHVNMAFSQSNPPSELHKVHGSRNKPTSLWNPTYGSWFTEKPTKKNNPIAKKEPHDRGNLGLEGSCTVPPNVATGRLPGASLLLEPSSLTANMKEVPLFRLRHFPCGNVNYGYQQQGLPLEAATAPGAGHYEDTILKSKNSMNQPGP
UniProt Q9UQB9: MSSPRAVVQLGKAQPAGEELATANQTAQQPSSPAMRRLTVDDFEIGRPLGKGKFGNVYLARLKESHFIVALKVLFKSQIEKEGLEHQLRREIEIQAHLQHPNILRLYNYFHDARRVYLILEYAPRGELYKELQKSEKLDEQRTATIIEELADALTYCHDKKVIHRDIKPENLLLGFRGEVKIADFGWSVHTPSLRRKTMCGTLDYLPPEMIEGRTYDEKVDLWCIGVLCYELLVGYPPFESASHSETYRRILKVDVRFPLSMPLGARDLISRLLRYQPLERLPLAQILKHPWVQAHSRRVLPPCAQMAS
UniProt P51451: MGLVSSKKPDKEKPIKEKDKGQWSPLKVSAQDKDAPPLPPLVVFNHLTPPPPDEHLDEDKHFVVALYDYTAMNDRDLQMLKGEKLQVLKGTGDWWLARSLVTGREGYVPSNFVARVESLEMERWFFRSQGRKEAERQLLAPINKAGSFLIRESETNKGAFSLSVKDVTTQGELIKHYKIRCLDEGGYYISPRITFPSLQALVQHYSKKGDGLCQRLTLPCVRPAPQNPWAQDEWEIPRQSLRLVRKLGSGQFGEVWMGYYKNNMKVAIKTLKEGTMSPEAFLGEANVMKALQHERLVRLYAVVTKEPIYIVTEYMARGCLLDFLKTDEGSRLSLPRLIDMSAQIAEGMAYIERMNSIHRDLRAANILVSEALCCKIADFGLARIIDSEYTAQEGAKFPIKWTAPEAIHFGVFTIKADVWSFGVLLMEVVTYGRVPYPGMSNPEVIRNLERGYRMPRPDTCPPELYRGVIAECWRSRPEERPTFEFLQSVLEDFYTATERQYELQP
UniProt P15056, whole entry, looked up: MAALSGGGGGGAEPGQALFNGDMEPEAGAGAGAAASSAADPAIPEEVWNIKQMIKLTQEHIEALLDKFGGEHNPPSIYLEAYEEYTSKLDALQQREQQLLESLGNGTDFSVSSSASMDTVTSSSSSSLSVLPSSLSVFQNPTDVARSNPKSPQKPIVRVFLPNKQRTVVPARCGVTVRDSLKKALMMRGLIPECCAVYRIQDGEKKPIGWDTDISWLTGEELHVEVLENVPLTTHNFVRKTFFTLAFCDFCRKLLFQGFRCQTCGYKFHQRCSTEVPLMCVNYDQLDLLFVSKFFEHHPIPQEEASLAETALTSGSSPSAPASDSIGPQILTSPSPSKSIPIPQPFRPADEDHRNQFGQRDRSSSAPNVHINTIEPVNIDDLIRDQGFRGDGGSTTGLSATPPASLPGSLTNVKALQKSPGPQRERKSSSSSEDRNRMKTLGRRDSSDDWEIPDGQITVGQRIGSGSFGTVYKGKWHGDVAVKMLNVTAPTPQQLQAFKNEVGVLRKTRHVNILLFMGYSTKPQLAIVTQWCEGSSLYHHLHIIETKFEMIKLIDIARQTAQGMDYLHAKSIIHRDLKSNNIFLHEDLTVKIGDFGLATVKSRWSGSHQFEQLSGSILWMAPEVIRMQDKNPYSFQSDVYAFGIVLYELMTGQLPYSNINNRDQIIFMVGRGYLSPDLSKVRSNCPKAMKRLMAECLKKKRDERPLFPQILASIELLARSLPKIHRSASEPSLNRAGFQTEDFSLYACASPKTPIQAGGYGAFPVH
UniProt Q9UQM7, whole entry: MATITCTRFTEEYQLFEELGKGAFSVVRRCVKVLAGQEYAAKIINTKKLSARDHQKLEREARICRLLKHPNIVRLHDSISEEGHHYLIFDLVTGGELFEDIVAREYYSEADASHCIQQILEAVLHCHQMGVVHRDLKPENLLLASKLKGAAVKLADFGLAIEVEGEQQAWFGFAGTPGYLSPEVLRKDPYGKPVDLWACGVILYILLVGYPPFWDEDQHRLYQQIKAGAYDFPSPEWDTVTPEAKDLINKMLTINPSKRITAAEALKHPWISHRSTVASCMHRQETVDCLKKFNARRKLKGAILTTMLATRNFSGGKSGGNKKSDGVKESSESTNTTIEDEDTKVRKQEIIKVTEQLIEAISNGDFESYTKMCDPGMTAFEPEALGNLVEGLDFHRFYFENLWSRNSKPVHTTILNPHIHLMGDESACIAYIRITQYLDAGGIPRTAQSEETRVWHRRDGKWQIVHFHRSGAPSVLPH
UniProt Q13555: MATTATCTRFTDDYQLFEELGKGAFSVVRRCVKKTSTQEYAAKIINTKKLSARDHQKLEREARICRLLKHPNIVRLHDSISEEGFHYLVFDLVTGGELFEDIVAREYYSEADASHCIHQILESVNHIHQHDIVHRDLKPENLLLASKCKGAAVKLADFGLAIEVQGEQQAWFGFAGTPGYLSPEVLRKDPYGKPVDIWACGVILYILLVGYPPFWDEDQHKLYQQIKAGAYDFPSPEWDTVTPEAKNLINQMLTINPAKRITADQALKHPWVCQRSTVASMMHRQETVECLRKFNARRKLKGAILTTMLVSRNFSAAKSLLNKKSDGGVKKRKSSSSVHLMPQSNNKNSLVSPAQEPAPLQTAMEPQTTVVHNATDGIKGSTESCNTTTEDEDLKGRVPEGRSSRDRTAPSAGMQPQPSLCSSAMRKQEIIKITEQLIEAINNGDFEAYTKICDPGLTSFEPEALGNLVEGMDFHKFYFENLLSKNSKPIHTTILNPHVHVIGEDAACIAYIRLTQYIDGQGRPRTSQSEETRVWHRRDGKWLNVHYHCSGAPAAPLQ
UniProt Q00526: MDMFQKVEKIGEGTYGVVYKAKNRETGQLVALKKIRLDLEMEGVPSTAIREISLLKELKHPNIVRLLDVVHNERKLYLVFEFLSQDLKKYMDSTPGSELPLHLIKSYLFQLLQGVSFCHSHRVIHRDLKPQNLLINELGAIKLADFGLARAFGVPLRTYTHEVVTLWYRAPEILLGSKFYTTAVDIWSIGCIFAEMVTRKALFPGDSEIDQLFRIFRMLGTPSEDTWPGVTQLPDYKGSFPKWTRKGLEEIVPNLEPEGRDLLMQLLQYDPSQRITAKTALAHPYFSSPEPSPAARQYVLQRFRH
UniProt O96017, whole entry: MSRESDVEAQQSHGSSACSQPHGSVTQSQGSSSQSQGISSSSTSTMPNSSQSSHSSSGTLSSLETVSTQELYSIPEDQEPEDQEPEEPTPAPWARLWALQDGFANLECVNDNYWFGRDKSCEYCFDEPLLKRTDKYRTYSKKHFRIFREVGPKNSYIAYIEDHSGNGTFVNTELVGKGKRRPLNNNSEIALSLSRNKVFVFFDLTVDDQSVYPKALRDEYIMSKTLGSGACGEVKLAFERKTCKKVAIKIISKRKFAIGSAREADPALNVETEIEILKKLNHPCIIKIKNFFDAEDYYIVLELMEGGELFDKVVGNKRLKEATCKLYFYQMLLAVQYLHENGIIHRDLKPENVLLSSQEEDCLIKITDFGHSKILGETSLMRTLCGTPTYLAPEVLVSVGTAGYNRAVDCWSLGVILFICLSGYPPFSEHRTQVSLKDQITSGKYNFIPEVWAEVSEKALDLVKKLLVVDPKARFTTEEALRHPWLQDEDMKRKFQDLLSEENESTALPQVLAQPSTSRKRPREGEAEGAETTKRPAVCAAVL
UniProt P07333, whole entry: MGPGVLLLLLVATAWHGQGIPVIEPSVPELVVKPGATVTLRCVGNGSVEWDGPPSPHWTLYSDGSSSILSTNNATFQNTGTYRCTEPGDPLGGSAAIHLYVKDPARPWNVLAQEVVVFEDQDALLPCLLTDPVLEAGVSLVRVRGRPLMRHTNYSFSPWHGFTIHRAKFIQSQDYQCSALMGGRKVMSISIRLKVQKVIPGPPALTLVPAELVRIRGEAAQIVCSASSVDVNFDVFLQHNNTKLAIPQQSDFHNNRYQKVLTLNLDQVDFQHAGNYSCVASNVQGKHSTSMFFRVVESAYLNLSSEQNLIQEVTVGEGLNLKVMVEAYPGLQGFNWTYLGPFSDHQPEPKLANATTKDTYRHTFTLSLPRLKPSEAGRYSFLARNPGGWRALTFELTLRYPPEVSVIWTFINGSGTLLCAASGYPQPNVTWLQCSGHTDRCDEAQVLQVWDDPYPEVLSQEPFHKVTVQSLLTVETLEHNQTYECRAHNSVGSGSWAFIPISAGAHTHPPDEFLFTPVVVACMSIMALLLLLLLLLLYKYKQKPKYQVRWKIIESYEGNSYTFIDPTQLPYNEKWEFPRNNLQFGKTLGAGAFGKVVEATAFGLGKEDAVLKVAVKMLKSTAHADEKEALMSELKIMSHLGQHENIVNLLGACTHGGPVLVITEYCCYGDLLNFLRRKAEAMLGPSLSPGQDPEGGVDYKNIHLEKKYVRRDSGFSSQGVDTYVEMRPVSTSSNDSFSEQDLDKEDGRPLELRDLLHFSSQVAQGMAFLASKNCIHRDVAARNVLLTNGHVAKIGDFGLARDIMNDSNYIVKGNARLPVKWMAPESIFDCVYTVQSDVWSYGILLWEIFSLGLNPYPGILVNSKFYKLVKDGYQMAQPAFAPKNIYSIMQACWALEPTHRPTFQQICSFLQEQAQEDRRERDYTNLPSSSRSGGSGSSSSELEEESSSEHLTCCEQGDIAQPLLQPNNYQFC
UniProt P41240: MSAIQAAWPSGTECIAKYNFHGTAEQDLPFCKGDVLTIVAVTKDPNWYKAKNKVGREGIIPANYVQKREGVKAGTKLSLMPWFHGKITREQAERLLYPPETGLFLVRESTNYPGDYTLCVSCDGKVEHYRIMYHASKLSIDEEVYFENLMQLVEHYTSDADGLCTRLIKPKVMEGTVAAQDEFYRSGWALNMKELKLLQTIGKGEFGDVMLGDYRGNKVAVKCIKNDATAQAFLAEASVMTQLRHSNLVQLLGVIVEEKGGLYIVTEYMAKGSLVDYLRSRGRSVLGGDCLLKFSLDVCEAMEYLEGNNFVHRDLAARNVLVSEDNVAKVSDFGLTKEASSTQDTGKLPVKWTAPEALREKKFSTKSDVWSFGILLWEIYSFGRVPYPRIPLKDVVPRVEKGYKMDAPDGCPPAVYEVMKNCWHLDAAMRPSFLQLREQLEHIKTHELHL

SMILES | number of time points [1] | number of time points [2] | number of time points [3] | number of time points [4] | number of time points [5] | number of time points [6] | number of time points [7] | number of time points [8] | number of time points [9] | number of time points [10] | number of time points [11] | number of time points [12] | number of time points [13] | number of time points [14] | number of time points [15] | number of time points [16] | number of time points [17] | number of time points [18] | number of time points [19] | number of time points [20]
C[C@H](CC[C@@H](O)C(C)(C)O)[C@H]1CC[C@@]2(C)[C@@H]3CC=C4[C@@H](CC[C@H](O)C4(C)C)[C@]3(C)[C@H](O)C[C@]12C [Mogrol] (10 µM) | 0 | 0 | 0 | 0 | 0 | 0 | 0 | 0 | 0 | 0 | 0 | 0 | 0 | 0 | 0 | 0 | 0 | 0 | 0 | 0
COc1cc(-c2cc(-c3cccc(O)c3)cnc2N)cc(OC)c1OC (2.5 µM) | 1 | 0 | 0 | 0 | 0 | 0 | 1 | 0 | 1 | 0 | 0 | 0 | 0 | 0 | 0 | 0 | 0 | 1 | 0 | 0
Cn1cc(C2=C(c3c4n(c5ccccc35)CCC(CN)C4)C(=O)NC2=O)c2ccccc21 (stereo not given) [Bisindolylmaleimide X (hydrochloride)] (2.5 µM) | 0 | 0 | 0 | 0 | 0 | 0 | 0 | 0 | 0 | 0 | 0 | 0 | 0 | 0 | 0 | 0 | 0 | 0 | 0 | 0
CCCCNc1ncc2c(-c3ccc(CN4CCN(C)CC4)cc3)cn([C@H]3CC[C@H](O)CC3)c2n1 [UNC2025 (hydrochloride)] (2.5 µM) | 1 | 0 | 0 | 0 | 0 | 0 | 1 | 0 | 2 | 0 | 0 | 0 | 0 | 0 | 0 | 0 | 0 | 0 | 0 | 0
O=c1ccc2cc(O)c(O)cc2o1 [Esculetin] (10 µM) | 0 | 0 | 0 | 0 | 0 | 0 | 0 | 0 | 0 | 0 | 0 | 0 | 0 | 0 | 0 | 0 | 0 | 0 | 0 | 0
COc1ncc2cc(C(=O)Nc3cc(C(=O)NCc4cccc(Cl)c4)ccc3Cl)c(=O)[nH]c2n1 (2.5 µM) | 0 | 0 | 0 | 0 | 0 | 0 | 0 | 0 | 0 | 0 | 0 | 0 | 0 | 0 | 0 | 0 | 0 | 0 | 0 | 0
Cn1sc(=O)n(Cc2ccccc2)c1=O (10 µM) | 0 | 0 | 0 | 0 | 0 | 0 | 0 | 0 | 0 | 0 | 0 | 0 | 0 | 0 | 0 | 0 | 0 | 0 | 0 | 0
COc1c(OCCCN2CCOCC2)ccc2c3n(c(=NC(=O)c4cnc(N)nc4)nc12)CCN3 [Copanlisib (dihydrochloride)] (10 µM) | 2 | 0 | 4 | 4 | 0 | 3 | 3 | 2 | 4 | 0 | 0 | 2 | 0 | 0 | 0 | 0 | 0 | 3 | 4 | 0
CCn1c2ccccc2c2cc(Nc3ccnc(NCCCN4CCOCC4)n3)ccc21 (2.5 µM) | 0 | 0 | 0 | 0 | 0 | 3 | 0 | 0 | 0 | 0 | 0 | 0 | 0 | 0 | 0 | 0 | 0 | 0 | 0 | 0
CNC(=O)Nc1cc(Oc2cncc(C)c2)c(-c2ccc(OCC(C)(C)O)nc2)cn1 (2.5 µM) | 0 | 0 | 0 | 0 | 0 | 0 | 0 | 0 | 0 | 0 | 0 | 0 | 0 | 0 | 0 | 0 | 0 | 0 | 0 | 0
O=C(CCc1ccc2n1[B-](F)(F)[N+]1=C(c3ccc[nH]3)C=CC1=C2)ON1C(=O)CCC1=O [Py-BODIPY-NHS ester] (2.5 µM) | 0 | 0 | 0 | 0 | 0 | 0 | 0 | 0 | 0 | 0 | 0 | 0 | 0 | 0 | 0 | 0 | 0 | 0 | 0 | 0
Cc1cc(Nc2ncc(Cl)c(Nc3ccccc3S(=O)(=O)C(C)C)n2)c(OC(C)C)cc1C1CCN(CC(=O)NCCNc2cccc3c2C(=O)N(C2CCC(=O)NC2=O)C3=O)CC1 (stereo not given) (10 µM) | 4 | 0 | 0 | 0 | 0 | 0 | 0 | 0 | 0 | 0 | 0 | 0 | 0 | 0 | 0 | 0 | 4 | 0 | 0 | 0

— the supplement of paper PMC12823440, “Inhibitors supercharge kinase turnover through native proteolytic circuits” (Nature, 2025)
